Measured values: patent US6365161
Results are given in words; binding and its absence hold for the method and conditions named. Some binding calls cover weakened binding; strength is not graded here.

The chains behind the UniProt entries cited, without tags or fusion partners. Where a name states a change or a piece, a line headed by the entry shows the natural chain unless it says otherwise. Residues count along the entry.
UniProt P06731, residues 35-685: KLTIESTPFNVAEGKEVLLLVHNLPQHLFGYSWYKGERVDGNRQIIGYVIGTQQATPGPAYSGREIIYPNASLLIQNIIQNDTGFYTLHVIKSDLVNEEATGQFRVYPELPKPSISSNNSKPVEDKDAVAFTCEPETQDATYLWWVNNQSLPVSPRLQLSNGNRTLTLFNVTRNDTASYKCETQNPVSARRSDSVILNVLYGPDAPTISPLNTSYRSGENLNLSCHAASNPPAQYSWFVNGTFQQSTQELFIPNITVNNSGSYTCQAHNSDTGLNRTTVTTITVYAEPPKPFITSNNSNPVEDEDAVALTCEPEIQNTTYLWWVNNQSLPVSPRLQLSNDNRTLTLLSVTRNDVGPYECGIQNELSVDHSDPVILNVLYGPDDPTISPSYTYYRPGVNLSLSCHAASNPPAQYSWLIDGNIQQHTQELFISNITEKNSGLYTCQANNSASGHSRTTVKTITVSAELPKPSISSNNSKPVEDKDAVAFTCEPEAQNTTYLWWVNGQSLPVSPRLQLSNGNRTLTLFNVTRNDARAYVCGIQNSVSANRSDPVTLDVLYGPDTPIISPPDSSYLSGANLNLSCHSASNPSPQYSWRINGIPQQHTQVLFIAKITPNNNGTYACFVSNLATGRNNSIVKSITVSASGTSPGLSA
UniProt P12314: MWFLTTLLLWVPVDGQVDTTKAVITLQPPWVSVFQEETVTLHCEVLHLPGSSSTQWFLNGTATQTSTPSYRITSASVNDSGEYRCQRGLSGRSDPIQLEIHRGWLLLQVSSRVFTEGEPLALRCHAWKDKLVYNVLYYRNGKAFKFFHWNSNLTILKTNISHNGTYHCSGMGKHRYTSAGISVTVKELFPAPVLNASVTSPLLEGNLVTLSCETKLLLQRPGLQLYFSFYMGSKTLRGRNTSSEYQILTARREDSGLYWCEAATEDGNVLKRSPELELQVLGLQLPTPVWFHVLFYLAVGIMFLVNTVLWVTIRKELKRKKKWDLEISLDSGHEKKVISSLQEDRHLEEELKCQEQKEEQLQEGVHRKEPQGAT
UniProt P01871: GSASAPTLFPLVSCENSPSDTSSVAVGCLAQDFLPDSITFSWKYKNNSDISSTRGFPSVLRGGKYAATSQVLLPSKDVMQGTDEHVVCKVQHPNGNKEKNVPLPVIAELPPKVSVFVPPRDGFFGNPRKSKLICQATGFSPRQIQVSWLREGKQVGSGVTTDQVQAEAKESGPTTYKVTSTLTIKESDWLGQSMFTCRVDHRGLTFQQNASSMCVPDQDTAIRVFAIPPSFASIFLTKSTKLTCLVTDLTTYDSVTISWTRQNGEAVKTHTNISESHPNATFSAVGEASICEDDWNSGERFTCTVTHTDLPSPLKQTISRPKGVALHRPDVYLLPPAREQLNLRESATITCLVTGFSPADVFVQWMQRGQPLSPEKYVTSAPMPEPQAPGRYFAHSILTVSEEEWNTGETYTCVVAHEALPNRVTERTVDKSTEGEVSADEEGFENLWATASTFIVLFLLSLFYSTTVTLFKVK

Key:
[1] = molecular target: carcinoembryonic antigen (CEA) (UniProt P06731); experiment: bispecific ELISA, CEA-coated plates, soluble FcγRI/IgM-µ, AP anti-human IgM
[2] = molecular target: soluble fusion protein consisting of the extracellular domain of human FcγRI and human IgM heavy chain (sFcγRI-µ) (human) (UniProt P12314+P01871); experiment: as above

binding [1]: binds
binding [2]: binds
B1: bispecific single chain molecule H22-anti-CEA encoded by construct 321 (bispecific antibody)
chain: DIQLVESGGGVVQPGRSLRLSCSSSGFIFSDNYMYWVRQAPGKGLEWVATISDGGSYTYYPDSVKGRFTISRDNSKNTLFLQMDSLRPEDTGVYFCARGYYRYEGAMDYWGQGTPVTVSSGGGGSGGGGSGGGGSDIQLTQSPSSLSASVGDRVTITCKSSQSVLYSSNQKNYLAWYQQKPGKAPKLLIYWASTRESGVPSRFSGSGSGTDFTFTISSLQPEDIATYYCHQYLSSWTFGQGTKVEIKSSCSSGGGGSDIKLQQSGAELVRSGTSVKLSCTASGFNIKDSYMHWLRQGPEQGLEWIGWIDPENGDTEYAPKFQGKATFTTDTSSNTAYLQLSSLTSEDTAVYYCNEGTPTGPYYFDYWGQGTTVTVSSGGGGSGGGGSGGGGSENVLTQSPAIMSASPGEKVTITCSASSSVSYMHWFQQKPGTSPKLWIYSTSNLASGVPARFSGSGSGTSYSLTISRMEAEDAATYYCQQRSSYPLTFGAGTKLELKRAAGSSGGGGSDIAAAEQKLISEEDLNGAAHHHHHH
